Assay results from patent publication US20030040613.

Tests used:
[1] = tested on: TFIID (TATA-box binding general transcription factor); experiment: competition with a labelled probe; conditions: EMSA competition on ice; competes at 3.5 and 0.35 pM, not at 0.035 and 0.0035 pM; data not shown; folded or branched DNA
[2] = tested on: TFIID (TATA-box binding general transcription factor); experiment: EMSA; conditions: equimolar TFIID, on ice; shifted band seen at low competitor; label: 32P

“ATATGCTCTGCTTTTGCAGAGCATATAAGG / TGAGGTAGGATTTTTCCTACCTCACCTT [consensus dumbbell]”: binds [1].

“GCAGAGCATATAAGGTGAGGTAGGA (double strand) [TFIID consensus duplex]”: binds [2].

Construct, isoform or probe ends are uncertain for at least one entry.
